Experimental data reported in PMC10177380, “Versatile Platinum(IV) Prodrugs of Naproxen and Acemetacin as Chemo-Anti-Inflammatory Agents” (Cancers, 2023).

Tests used:
A431 skin = assay: MTT growth inhibition, 72 h, A431; assay type: cell-based; conditions: Homo sapiens, A-431
[1] = Selectivity cytotoxicity index (GI50 in MCF10A/GI50 in Du145); conditions: human, MCF10A normal breast cells and Du145 prostate cancer cells

COc1ccc2cc([C@H](C)C(=O)O)ccc2c1 [NPX, naproxen]
GI50 (A431 skin): > 50 µM
selectivity ratio [1]: 1
